The target in test [1] is T1, MICA on tumor cells (human) (UniProt Q29983).
T1 sequence (looked up): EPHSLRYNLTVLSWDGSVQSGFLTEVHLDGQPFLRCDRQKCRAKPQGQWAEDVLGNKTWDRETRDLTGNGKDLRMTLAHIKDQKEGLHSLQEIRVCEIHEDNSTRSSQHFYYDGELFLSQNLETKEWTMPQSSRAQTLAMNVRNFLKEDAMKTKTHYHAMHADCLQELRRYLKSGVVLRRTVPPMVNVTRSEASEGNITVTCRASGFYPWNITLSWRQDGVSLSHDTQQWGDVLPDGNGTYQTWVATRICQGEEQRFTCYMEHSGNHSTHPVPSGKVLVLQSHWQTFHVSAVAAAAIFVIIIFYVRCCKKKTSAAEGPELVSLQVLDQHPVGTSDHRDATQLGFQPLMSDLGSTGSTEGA
Briefly: flow cytometry on RPMI 8226, Xg-1, OVCAR3, U937, K028, 1792, 827 and MCF7 cells, directly conjugated antibody. (In general: In flow cytometry, cells or beads pass a laser one at a time.)

Test [2] concerns the target T1, MICA on tumor cells (human). Briefly: flow cytometry on autologous CD33+CD34+ tumor cells from bone marrow of patient CM24002, antibody at 10 µg/ml.
For test [3], the target named is T2, soluble, recombinant MICB with a single BirA biotinylation site (human) (UniProt Q29980).
T2 sequence (looked up): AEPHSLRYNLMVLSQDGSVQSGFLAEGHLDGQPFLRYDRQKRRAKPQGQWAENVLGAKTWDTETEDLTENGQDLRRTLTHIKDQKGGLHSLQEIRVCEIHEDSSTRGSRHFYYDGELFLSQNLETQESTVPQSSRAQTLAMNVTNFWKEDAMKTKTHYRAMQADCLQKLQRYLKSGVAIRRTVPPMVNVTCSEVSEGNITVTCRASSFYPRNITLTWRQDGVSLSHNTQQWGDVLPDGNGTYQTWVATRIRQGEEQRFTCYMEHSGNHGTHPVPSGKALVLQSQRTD
The test can be described thus: cytometric bead assay, biotinylated protein on streptavidin beads, FITC anti-human IgG.

Test [4] addresses T3, recombinant MICA alpha 3 domain, biotinylated (human) (UniProt Q29983).
T3 sequence (looked up): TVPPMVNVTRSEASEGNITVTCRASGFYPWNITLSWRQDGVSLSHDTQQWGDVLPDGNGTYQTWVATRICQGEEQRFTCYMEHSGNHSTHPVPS
Briefly: cytometric bead assay, biotinylated alpha 3 domain on streptavidin beads, antibody at 10 µg/ml, FITC anti-human IgG.

The target of test [5] is T4, MICA antigen (UniGene Hs.130838) with C-terminal BirA tag, mono-biotinylated (human) (UniProt Q29983).
T4 sequence: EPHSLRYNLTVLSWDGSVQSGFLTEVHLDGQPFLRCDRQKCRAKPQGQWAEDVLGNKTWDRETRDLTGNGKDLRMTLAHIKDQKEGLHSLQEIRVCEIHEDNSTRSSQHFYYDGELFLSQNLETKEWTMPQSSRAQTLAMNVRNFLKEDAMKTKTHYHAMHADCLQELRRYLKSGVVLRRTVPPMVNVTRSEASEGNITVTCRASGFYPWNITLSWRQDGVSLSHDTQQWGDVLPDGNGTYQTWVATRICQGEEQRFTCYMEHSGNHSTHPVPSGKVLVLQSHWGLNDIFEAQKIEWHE
Briefly: bead assays: commercial MICA Luminex beads and MICA-coated streptavidin beads by flow cytometry.

No constants are given. Whether binding was seen depends on the method and setting. Some entries that bind do so weakly or less than the wild type. For part of these data: Where a sequence is shown, tags or fusion partners need not be part of it.

B1: CM24002 Ab2 (anti-MICA antibody ID-6 of Table 1) (antibody, V domains shown)
VH: QVQLQESGPGLVEPSGTLSLTCTVSGGSISRSNWWSWVRQPPGEGLEWIGEIHHIGRSSYNPSLKSRVTMSVDKSQNQFSLRLTSVTAADTAVYYCAKNGYYAMDVWGQGTTVTVSS
VL: EIVLTQSPGTLSLSPGERATLSCRASQSVSSDFLAWYQQKPGQAPRLLIYATSFRATGISDRFSGSGSGTDFSLTINRLEPEDFAVYYCQHYRSSPPWYTFAQGTKLDMRRTVAAPSV
Consider B1, for which the binding result in test [1] and in test [2] was “binds” in each case.

B2: CM33322 Ab29 (anti-MICA antibody ID-9 of Table 1) (antibody, V domains shown)
VH: EVQLLESGGGLVQPGGSLRLSCAASGFTFSSYGLTWIRQAPGKGLEWVSSISGSGNNTYYADSVKGRFTISRDKVKKTLYLQMDSLTVGDTAVYYCLGVGQGHGIPVIVSS
VL: DIVMTQTPLSSPVTLGQPASISCRSSQSLVHRDGNTYLSWFLQRPGQAPRLLIYRISNRFSGVPDRFSGSGAGTDFTLKISRVEAEDVGVYYCMQATQIPNTFGQGTKLEIK
Consider B2, for which the binding result in test [1], in test [3] and in test [4] was “binds” in each case.

B3: MICA-Ab20 (anti-MICA antibody ID-1 of Table 1) (antibody, V domains shown)
VH: QVQLQQWGAGLLKPSETLALTCAVSGGSFTDHYWSWIRQAPGKGLEWIGEINHSGVTNYNPSLKSRLTISVDTSKSQFSLRLTSVTAADTALYYCAKTGLYYDDVWGTFRPRGGFDSWGQGTLVTVSS
VL: DIVMTQSPDSLAVSLGERATINCKSSQSILYSSDNKNYLAWYQHKPGQPPKLLFYWASIRESGVPDRFSGGGSGTDFTLTISSLQAEDVAVYYCQQYYSPPCSFGQGTKLEIQ
In the case of B3, the binding result in test [5] is listed as “binds”.
